{"source": "PubChem BioAssay AID1259405 | NCATS | 2018", "aim": "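Knock-downs that lift recombinant protein yield in hamster ovary cells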 (primary screen)", "cells": "Chinese hamster CHO-K1 ovary cells with stable secreted eGFP expression", "reagents": "single siRNA against mouse genes, 0.8 pmol siRNA per well (2 µl of 400 nM stock)", "timing": "3 days", "read-out": "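Percent of the per-plate non-targeting control median for intracellular GFP per well by laser scanning cytometry and for cell viability by ATP luminescence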", "scale": "GFP, % of control: higher = more GFP per well, higher productivity; viability (ATP), % of control: higher = more viable cells (more ATP)", "hit rule": "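Called active when intracellular GFP, relative to negative control, is at or above 120%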", "note": "In all, the deposit lists about 50,000 reagents; shown is a part drawn at random. Over the whole deposit, about 4,000 (8%) were called active. 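Mouse siRNA library applied to hamster cells; one well for each siRNA.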 Unmarked entries are inactive. Reagents against one gene are numbered here."}
{"gene": "S100a11", "reagent": 1, "GFP, % of control": 62.4, "viability (ATP), % of control": 71.7}
{"gene": "S100a11", "reagent": 2, "GFP, % of control": 79.5, "viability (ATP), % of control": 56.1}
{"gene": "S100a11", "reagent": 3, "GFP, % of control": 87.5, "viability (ATP), % of control": 66.9}
{"gene": "Cdh13", "reagent": 1, "GFP, % of control": 78, "viability (ATP), % of control": 88.4}
{"gene": "Cdh13", "reagent": 2, "GFP, % of control": 87.5, "viability (ATP), % of control": 81.3}
{"gene": "Cdh13", "reagent": 3, "GFP, % of control": 55.7, "viability (ATP), % of control": 55.8}
{"gene": "Ppp2r5a", "reagent": 1, "GFP, % of control": 63.6, "viability (ATP), % of control": 94.9}
{"gene": "Ppp2r5a", "reagent": 2, "GFP, % of control": 34.5, "viability (ATP), % of control": 32.3}
{"gene": "Ppp2r5a", "reagent": 3, "GFP, % of control": 86.9, "viability (ATP), % of control": 106}
{"gene": "B630019K06Rik", "reagent": 1, "GFP, % of control": 76.6, "viability (ATP), % of control": 56.5}
{"gene": "B630019K06Rik", "reagent": 2, "GFP, % of control": 78.6, "viability (ATP), % of control": 84.6}
{"gene": "B630019K06Rik", "reagent": 3, "GFP, % of control": 75.9, "viability (ATP), % of control": 44.1}
{"gene": "Cpne1", "reagent": 1, "GFP, % of control": 64.5, "viability (ATP), % of control": 101}
{"gene": "Cpne1", "reagent": 2, "GFP, % of control": 40, "viability (ATP), % of control": 88.8}
{"gene": "Cpne1", "reagent": 3, "GFP, % of control": 95.1, "viability (ATP), % of control": 116}
{"gene": "Ninj1", "reagent": 1, "GFP, % of control": 68.7, "viability (ATP), % of control": 72.7}
{"gene": "Ninj1", "reagent": 2, "GFP, % of control": 85.3, "viability (ATP), % of control": 47.5}
{"gene": "Olfr255", "reagent": 1, "GFP, % of control": 72.1, "viability (ATP), % of control": 52.4}
{"gene": "Olfr255", "reagent": 2, "GFP, % of control": "135 (active)", "viability (ATP), % of control": 62.7}
{"gene": "Olfr255", "reagent": 3, "GFP, % of control": 72.2, "viability (ATP), % of control": 74.1}
{"gene": "H2-Eb1", "reagent": 1, "GFP, % of control": 59.8, "viability (ATP), % of control": 54.6}
{"gene": "H2-Eb1", "reagent": 2, "GFP, % of control": 80.5, "viability (ATP), % of control": 74}
{"gene": "H2-Eb1", "reagent": 3, "GFP, % of control": 71.6, "viability (ATP), % of control": 97.5}
{"gene": "Dpp7", "reagent": 1, "GFP, % of control": 106, "viability (ATP), % of control": 96.5}
{"gene": "Dpp7", "reagent": 2, "GFP, % of control": 112, "viability (ATP), % of control": 91.8}
{"gene": "Dpp7", "reagent": 3, "GFP, % of control": 72.3, "viability (ATP), % of control": 88.9}
{"gene": "Svs4", "reagent": 1, "GFP, % of control": 74, "viability (ATP), % of control": 61.4}
{"gene": "Svs4", "reagent": 2, "GFP, % of control": 99.9, "viability (ATP), % of control": 108}
{"gene": "Svs4", "reagent": 3, "GFP, % of control": "145 (active)", "viability (ATP), % of control": 110}
{"gene": "Arpc4", "reagent": 1, "GFP, % of control": 76.9, "viability (ATP), % of control": 57.7}
{"gene": "Arpc4", "reagent": 2, "GFP, % of control": 75.3, "viability (ATP), % of control": 70.5}
{"gene": "Arpc4", "reagent": 3, "GFP, % of control": 96.6, "viability (ATP), % of control": 49.9}
{"gene": "Natd1", "reagent": 1, "GFP, % of control": 101, "viability (ATP), % of control": 73.2}
{"gene": "Natd1", "reagent": 2, "GFP, % of control": 98.9, "viability (ATP), % of control": 85.6}
{"gene": "Natd1", "reagent": 3, "GFP, % of control": "150 (active)", "viability (ATP), % of control": 81.7}
{"gene": "Ppargc1b", "reagent": 1, "GFP, % of control": 65.3, "viability (ATP), % of control": 80.3}
{"gene": "Ppargc1b", "reagent": 2, "GFP, % of control": "132 (active)", "viability (ATP), % of control": 119}
{"gene": "Tll1", "reagent": 1, "GFP, % of control": 103, "viability (ATP), % of control": 88.8}
{"gene": "Tll1", "reagent": 2, "GFP, % of control": 66.2, "viability (ATP), % of control": 68.8}
{"gene": "Mlst8", "reagent": 1, "GFP, % of control": 41.2, "viability (ATP), % of control": 70.5}
{"gene": "Mlst8", "reagent": 2, "GFP, % of control": 72.9, "viability (ATP), % of control": 84.1}
{"gene": "Mlst8", "reagent": 3, "GFP, % of control": 29.4, "viability (ATP), % of control": 21.8}

Part of the list above, reformatted.
{"gene":"Svs4","reagent":1,"GFP, % of control":74,"viability (ATP), % of control":61.4}
{"gene":"Svs4","reagent":2,"GFP, % of control":99.9,"viability (ATP), % of control":108}
{"gene":"Svs4","reagent":3,"GFP, % of control":"145 (active)","viability (ATP), % of control":110}
{"gene":"Arpc4","reagent":1,"GFP, % of control":76.9,"viability (ATP), % of control":57.7}
{"gene":"Arpc4","reagent":2,"GFP, % of control":75.3,"viability (ATP), % of control":70.5}
{"gene":"Arpc4","reagent":3,"GFP, % of control":96.6,"viability (ATP), % of control":49.9}
